Source: PubChem BioAssay AID1259268 (Sanger Institute, 2017)
Screen: 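Kinase silencing that acts in synergy with trametinib, cetuximab or BYL719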 (follow-up of hits). Cell system: human SNUC1 colorectal cancer cells. Reagent: single siRNA against human genes. Treatment: anchor drugs added a day after transfection: BYL719 1 µM, cetuximab 5 µg/ml or trametinib 10 nM, versus DMSO vehicle. Read-out: 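Replicate-averaged viability as a fraction of the non-targeting control, and a score of how far knock-down plus drug exceeds their separate effects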. Reading the numbers: synergy score with trametinib and synergy score with cetuximab and synergy score with BYL719: higher = stronger synergy of knock-down with drug. Hit rule: 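Inactive when no drug gives a synergy score over 0.1, otherwise active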. Calls: active = synergy with at least one drug; inactive = no synergy with any drug.
Shown is one part, drawn at random, of 160 reagents tested. Over the whole deposit, 58 (36%) were called active. 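Trametinib by itself roughly halved viability, making its arm harsher than the cetuximab and BYL719 arms.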 The numbers tell different reagents against one gene apart. Not all columns of the deposit are shown. Not given: the amount of reagent, the time to read-out.

PLK1 #1 — synergy score with trametinib = 0.0576; synergy score with cetuximab = 0.248; synergy score with BYL719 = -0.0995; activity call = active
PLK1 #2 — synergy score with trametinib = 0.0367; synergy score with cetuximab = 0.0654; synergy score with BYL719 = 0.0345; activity call = inactive
PLK1 #3 — synergy score with trametinib = -0.000437; synergy score with cetuximab = -0.0977; synergy score with BYL719 = -0.0608; activity call = inactive
PLK1 #4 — synergy score with trametinib = -0.14; synergy score with cetuximab = -0.105; synergy score with BYL719 = -0.0859; activity call = inactive
PAK1 #1 — synergy score with trametinib = 0.13; synergy score with cetuximab = -0.0663; synergy score with BYL719 = -0.192; activity call = active
PAK1 #2 — synergy score with trametinib = -0.1; synergy score with cetuximab = -0.0788; synergy score with BYL719 = -0.239; activity call = inactive
PAK1 #3 — synergy score with trametinib = 0.059; synergy score with cetuximab = 0.148; synergy score with BYL719 = -0.216; activity call = active
PAK1 #4 — synergy score with trametinib = 0.088; synergy score with cetuximab = -0.0663; synergy score with BYL719 = 0.00804; activity call = inactive
CHD4 #1 — synergy score with trametinib = -0.0142; synergy score with cetuximab = -0.0365; synergy score with BYL719 = -0.161; activity call = inactive
CHD4 #2 — synergy score with trametinib = 0.0278; synergy score with cetuximab = -0.0432; synergy score with BYL719 = -0.0105; activity call = inactive
CHD4 #3 — synergy score with trametinib = 0.0401; synergy score with cetuximab = -0.0841; synergy score with BYL719 = -0.11; activity call = inactive
CHD4 #4 — synergy score with trametinib = 0.137; synergy score with cetuximab = 0.104; synergy score with BYL719 = -0.0698; activity call = active

Continued; the last 2 above are carried over.
CHD4 #3 — synergy score with trametinib = 0.0401; synergy score with cetuximab = -0.0841; synergy score with BYL719 = -0.11; activity call = inactive
CHD4 #4 — synergy score with trametinib = 0.137; synergy score with cetuximab = 0.104; synergy score with BYL719 = -0.0698; activity call = active
SYNCRIP #1 — synergy score with trametinib = 0.14; synergy score with cetuximab = 0.107; synergy score with BYL719 = -0.0683; activity call = active
SYNCRIP #2 — synergy score with trametinib = -0.00328; synergy score with cetuximab = 0.037; synergy score with BYL719 = -0.23; activity call = inactive
SYNCRIP #3 — synergy score with trametinib = 0.064; synergy score with cetuximab = 0.201; synergy score with BYL719 = 0.0211; activity call = active
SYNCRIP #4 — synergy score with trametinib = 0.152; synergy score with cetuximab = 0.144; synergy score with BYL719 = -0.196; activity call = active
NR2F2 #1 — synergy score with trametinib = 0.036; synergy score with cetuximab = -0.149; synergy score with BYL719 = -0.189; activity call = inactive
NR2F2 #2 — synergy score with trametinib = -0.09; synergy score with cetuximab = -0.16; synergy score with BYL719 = -0.101; activity call = inactive
NR2F2 #3 — synergy score with trametinib = 0.0148; synergy score with cetuximab = -0.132; synergy score with BYL719 = -0.299; activity call = inactive
NR2F2 #4 — synergy score with trametinib = 0.1; synergy score with cetuximab = -0.174; synergy score with BYL719 = -0.324; activity call = inactive
